Reference: patent US20200109207A1

Key:
[1] = molecular target: recombinant cynomolgus CD27-FLAG-HIS (cynomolgus); test: ELISA, plate coated with recombinant cynomolgus CD27-FLAG-HIS; hybridoma supernatants, anti-rat IgG Fc-HRP detection
[2] = molecular target: recombinant cynomolgus CD27-FLAG-HIS (cynomolgus); test: ELISA, plate coated with recombinant cynomolgus CD27-FLAG-HIS; hybridoma supernatants

B1: anti-CD27 human monoclonal antibody 2B3 (antibody, V domains shown)
VH: QVQLVQSGAEVKKPGASVKVSCKASGYTFTGYYIHWVRQAPGQGLEWMGWINPNSGGTNSAQKFQDRVTITRVTSINTAYMELSRLRSDDTAVYFCARDRLVLPWFGEIFPDAFDIWGQGTLVTVSS
VL: EIVMTQSPATLSVSPGERATLSCRASQSIRSNLAWYQQKPGQAPRLLIYGASTRATGIPARFSGSGSGTEFTLTISSLQSENFAVYYCQQYNNWPLTFGGGTKVEIK
- binding [1]: binds
- binding [2]: binds

Results are given in words; binding and its absence hold for the method and conditions named. Binding can be weak; no strength is given.
